## Library screening results

Protein sequences, listed by entry. Tags and fused reporters are not part of them.
UniProt E9BF75, entry or part of it: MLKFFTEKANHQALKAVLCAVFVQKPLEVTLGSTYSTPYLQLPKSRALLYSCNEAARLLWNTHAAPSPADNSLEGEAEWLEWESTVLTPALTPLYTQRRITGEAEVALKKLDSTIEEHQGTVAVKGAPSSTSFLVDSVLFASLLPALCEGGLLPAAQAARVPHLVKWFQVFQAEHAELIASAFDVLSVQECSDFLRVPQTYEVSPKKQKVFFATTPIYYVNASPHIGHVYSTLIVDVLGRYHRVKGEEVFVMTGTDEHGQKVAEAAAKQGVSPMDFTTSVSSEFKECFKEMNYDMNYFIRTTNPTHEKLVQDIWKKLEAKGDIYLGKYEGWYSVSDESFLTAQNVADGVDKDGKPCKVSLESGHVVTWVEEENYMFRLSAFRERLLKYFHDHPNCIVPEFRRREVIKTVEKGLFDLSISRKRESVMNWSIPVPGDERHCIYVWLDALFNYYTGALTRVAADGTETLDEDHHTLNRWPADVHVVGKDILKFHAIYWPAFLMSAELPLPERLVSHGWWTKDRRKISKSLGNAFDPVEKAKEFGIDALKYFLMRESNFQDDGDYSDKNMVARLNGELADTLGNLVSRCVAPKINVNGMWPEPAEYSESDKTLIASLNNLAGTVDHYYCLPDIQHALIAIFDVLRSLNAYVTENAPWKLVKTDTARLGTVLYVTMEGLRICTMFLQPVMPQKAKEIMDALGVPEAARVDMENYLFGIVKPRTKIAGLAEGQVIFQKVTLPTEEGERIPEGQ

All values are in %. The controls that fix the scale are not given in the record; negative values are as filed. Compounds were drawn at random from those tested, without regard to their results. A dash means the value is not listed here; it may have been measured.

A: 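Methionyl-tRNA synthetase (putative), Leishmania donovani (UniProt E9BF75). Primary screen of methionyl-tRNA synthetase; the read-out is not stated. The test concentration is not given. Values are per cent inhibition. Of about 68,000 compounds tested this way, about 24 (0.035%) reached 50% or more in at least one test.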
B: 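Assay on Mycobacterium tuberculosis, filed only as a heat shock assay from Cornell; the read-out is not stated. The concentration is filed as 10 mM, unlikely as a test dose, so the dose is not known. Higher reads as stronger inhibition (inferred: compounds with an IC50 in retests scored well above the rest). Size under these conditions: about 69,000 compounds, about 930 of them at 50% or above in at least one test.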

compound	A	B
CC1CCN(C(=O)CSCc2nc(C3CC3)no2)CC1	6.534%	21.4%
CC(C)C(C(=O)O)c1cccc(Cl)c1 (stereo not shown)	11.85%	12.89%
COc1cc2nc(C)n(CC(=O)NCC(C)C)c(=O)c2cc1OC	10.63%	6.258%
CC1c2ncc(COCC3CCCC3)n2CCN1S(=O)(=O)N(C)C (stereo not shown)	11.96%	-25.54%
Cc1ccc(NC2CCN(C(=O)c3cnc(C)s3)CC2)nn1	20.28%	6.662%
CC(CN1CCOCC1)NC(=O)N1CCCC1 (stereo not shown)	10.84%	-4.611%
CC(C)CN(Cc1ccc(O)c(C(=O)O)c1)Cc1ccccn1	-	-26.61%
CCN1CCC2(CCC1=O)CN(c1cnc3ccccc3n1)CCN2C (stereo not shown)	0.5587%	-27.35%
NCCn1nc(C2CCN(Cc3ccccc3)C2)c2nccnc21 (stereo not shown)	29.77%	-30.4%
COc1cccc(C(=O)NCC2CCN(C(=O)c3ccoc3)CC2)c1	8.042%	-10.3%
O=C1NCc2ccccc2CC12CCN(Cc1ccncc1Cl)C2 (stereo not shown)	8%	-0.9267%
CC(=O)N1CCOCC(Cc2ccc3c(ccn3C(C)=O)c2)C1 (stereo not shown)	12.81%	10.3%
COc1ccc(CN2CCC3(CC2)CCN(CC2CC2)C3=O)cc1	9.764%	-
CC(C)(CNC1CCCN(Cc2ccccc2F)C1)CN1CCOCC1 (stereo not shown)	9.137%	-14.18%
CC(=O)N1[C@H](CN(C)C)C[C@@H]2CN(C(=O)c3cnc(C)cn3)CC[C@@H]21	1.12%	-
N#Cc1cccc(N2CCOC3(CNCCOC3)C2)n1 (stereo not shown)	-0.7326%	-12.02%
CCOC1CCCN(C(=O)CCOc2ccc(C)cc2OC)C1 (stereo not shown)	7.311%	-11.18%
CCCC1c2cccn2CCN1S(=O)(=O)N1CCOCC1 (stereo not shown)	14.69%	-2.394%
CC(C)CN(C(=O)Nc1cccnc1)C1CC1	18.04%	-28%
O=C(NCCN1CCOCC1)N(Cc1ccoc1)C1CCCCC1	6.596%	-0.5094%
O=C1NCC(C(=O)Nc2ccc(=O)n(Cc3ccccc3Cl)c2)N1 (stereo not shown)	12.13%	5.456%
O=C(O)C(F)(F)F.c1csc(CN2CCc3ncnc(C4CCOC4)c3CC2)c1 (stereo not shown)	-	-0.2751%
O=c1[nH]c(CCN2CCN(CC(F)(F)F)CC2)nc2ccccc12	12.01%	10.22%
Cc1c(C2CCCN(C(=O)Cc3ccccn3)C2)n2c(nc1=O)CCC2 (stereo not shown)	7.192%	-
CN(C)C(=O)CN1CC[C@H]2CN(S(C)(=O)=O)C[C@@H]2C1=O	7.222%	-
N#Cc1cccnc1N1CCCC(CO)(CCOc2ccccc2)C1 (stereo not shown)	17.6%	-40%
CCOC(CC)C(=O)NCCC(=O)N1CCN(c2ncccn2)CC1 (stereo not shown)	11.27%	9.012%
Cc1nc(C(=O)N2CCCC(c3cccc(-n4ccnc4)n3)C2)co1 (stereo not shown)	8.562%	-7.255%
O=C(NC1CC1)[C@@H]1C[C@@H]2CCN(Cc3ccoc3)C[C@@H]2O1	10.34%	-
Cc1cc(C(=O)NCc2ccc(N3CCCC(C(N)=O)C3)cc2)[nH]n1 (stereo not shown)	7.692%	-13.77%
Cc1nnc(N2CCC(CCn3ccnc3C)CC2)o1	14.07%	2.442%
[H][C@]12CCN(C(=O)c3ccc4c(c3)CCC4)CC[C@]1([H])N(C(C)C)C(=O)CO2	-	-9.853%
c1cnc(C2CCCN2c2cnccn2)cn1 (stereo not shown)	0%	-18.71%
Cc1ccc(-n2ncc(C(=O)N3CCCC3c3cnn(C)c3)c2C)cc1 (stereo not shown)	9.444%	-36.48%
CCCNC(=O)N1CCc2ccc(S(=O)(=O)N3CCOCC3)cc2C1	7.419%	1.138%
CCc1[nH]c2c(CNc3cncc(C(=O)N(C)C)n3)cc(F)cc2c1C	28.57%	3.342%
O=C(NCc1cc[nH]n1)N1CCCC(N2CCCC2)C1 (stereo not shown)	15.36%	-6.191%
c1cn(Cc2ccc(N3CCCN(C4CCCC4)CC3)nc2)cn1	0.6349%	1.871%
O=C([C@@H]1C[C@@H]2CCN(Cc3ccoc3)C[C@H]2O1)N1CCCC1	8.269%	-
Cc1cc2nc(-c3cn(C4CCNCC4)nn3)[nH]c2cc1C	13.71%	15.31%
COc1cc2c(cc1OC)C(=O)C(Sc1nncn1C)C2 (stereo not shown)	3.226%	-4.009%
Cc1cc(=O)n(CC(=O)Nc2cccc(Cl)c2)nc1C	10.7%	1.208%
CC(=O)N1CCO[C@@H]2CN(S(=O)(=O)c3ccccc3F)C[C@@H]2C1	11.5%	-
Cc1ccc(C(=O)N2C[C@H]3CCC[C@@]3(COCc3cccnc3)C2)s1	17.6%	-
CN(C)C(=O)C1CCN(Cc2csc(C(C)(C)C)n2)CC1	13.8%	-17.84%
O=C(c1cccnc1-n1cncn1)N1CCN(c2ccccc2)CC1	9.239%	-8.773%
c1nc(COCC2CC2)c2n1CCCN(CC1CC1)C2	9.623%	-
Cc1nccn1[C@@H]1CC[C@@H](N(C)S(=O)(=O)c2cccc(F)c2)[C@H]1O	13.37%	-0.4361%
c1ccc(CN2CCOCC3(CCN(C4CCOCC4)C3)C2)cc1 (stereo not shown)	7.296%	-
Fc1ccc(CN2CCC3(CC2)CC(c2cccnc2)CO3)cc1.O=C(O)C(F)(F)F.O=C(O)C(F)(F)F (stereo not shown)	-	-26.17%
O=C(N[C@H]1CCCC[C@@H]1O)c1cccc(-c2nc3ccccc3[nH]2)c1	16.39%	55.91%
O=C(NC1COC2(CCN(CC3CCC3)CC2)C1)c1ccccn1 (stereo not shown)	10.64%	-
CCC(C)Oc1ccc(CNCCc2c[nH]cn2)cc1Cl (stereo not shown)	17.14%	101.9%
CN(C)C(=O)CS(=O)(=O)Cc1cc(Cl)c2c(c1)OCCCO2	5.512%	6.871%
CCCOCC(=O)N1CCC2(CC1)c1nc[nH]c1CCN2S(C)(=O)=O	9.929%	9.504%

Once more, the final 4:

| compound | A | B |
|---|---|---|
| `O=C(NC1COC2(CCN(CC3CCC3)CC2)C1)c1ccccn1` (stereo not shown) | 10.64% | - |
| `CCC(C)Oc1ccc(CNCCc2c[nH]cn2)cc1Cl` (stereo not shown) | 17.14% | 101.9% |
| `CN(C)C(=O)CS(=O)(=O)Cc1cc(Cl)c2c(c1)OCCCO2` | 5.512% | 6.871% |
| `CCCOCC(=O)N1CCC2(CC1)c1nc[nH]c1CCN2S(C)(=O)=O` | 9.929% | 9.504% |

The values are deposited in ChEMBL (CHEMBL3988442, “University of Dundee, Small-Polar-MMV Screening Library” (2021)).